# pIC50: −log10 of the molar value. For at least one compound, name, drawing or mass did not settle the structure. Bridge positions count the residues as written; N and C are the ends. Square brackets hold non-standard residues; d marks the D form. Peptide text beside a SMILES is read from it. I, II: the chains in the order shown. * marks the point of attachment. Succinyl(2R-iBu,4-NHOH) = CC(C)C[C@H](CC(=O)NO)C(=O)*; Hyp = O=C(O)[C@@H]1C[C@@H](O)CN1; Ahx = NCCCCCC(=O)O
# Amino acid sequences for entries named in this document (tags omitted). Residues count along the entry.
# UniProt P08254, 100-477: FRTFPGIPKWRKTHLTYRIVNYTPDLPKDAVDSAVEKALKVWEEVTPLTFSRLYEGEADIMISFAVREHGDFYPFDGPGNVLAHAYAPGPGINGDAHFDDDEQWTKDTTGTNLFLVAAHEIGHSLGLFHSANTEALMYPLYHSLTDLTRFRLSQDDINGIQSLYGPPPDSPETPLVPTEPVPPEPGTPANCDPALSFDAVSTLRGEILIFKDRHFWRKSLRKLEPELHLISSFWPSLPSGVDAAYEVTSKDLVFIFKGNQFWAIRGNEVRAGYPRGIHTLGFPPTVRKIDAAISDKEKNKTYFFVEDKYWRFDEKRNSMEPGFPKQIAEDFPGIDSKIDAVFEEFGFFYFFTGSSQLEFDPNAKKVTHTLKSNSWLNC
# Key:
# activated stromelysin = activated stromelysin (Homo sapiens, UniProt P08254); assay: Inhibition of trypsin-activated stromelysin, fluorogenic Mca peptide substrate; assay type: biochemical; details: substrate 5 μM, 37° C., 60 minutes, 5 minutes preincubation; read-out: IC50 against activated stromelysin
# [1] = target: T1, activated human interstitial collagenase (Homo sapiens, UniProt P03956); assay: Inhibition of trypsin-activated human interstitial collagenase, fluorogenic Mca peptide substrate; assay type: biochemical; details: substrate 10 μM, 37° C., 45 minutes, 5 minutes preincubation; read-out: IC50 against activated human interstitial collagenase
# T1 sequence (P03956 100-469): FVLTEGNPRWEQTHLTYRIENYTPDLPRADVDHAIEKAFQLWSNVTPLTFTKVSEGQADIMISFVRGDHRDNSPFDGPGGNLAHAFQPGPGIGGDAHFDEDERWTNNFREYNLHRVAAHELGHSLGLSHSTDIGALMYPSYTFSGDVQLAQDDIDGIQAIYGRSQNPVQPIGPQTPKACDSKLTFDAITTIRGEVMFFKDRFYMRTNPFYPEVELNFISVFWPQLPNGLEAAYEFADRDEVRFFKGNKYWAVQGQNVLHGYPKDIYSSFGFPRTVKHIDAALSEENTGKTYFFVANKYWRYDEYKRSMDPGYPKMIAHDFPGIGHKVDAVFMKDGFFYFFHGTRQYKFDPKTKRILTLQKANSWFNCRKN
Compound,pIC50 (activated stromelysin),pIC50 [1]
"CC(C)C[C@H](CC(=O)NO)C(=O)N[C@@H](Cc1c[nH]c2ccccc12)C(=O)NCC(=O)N1CCC[C@H]1C(=O)N1C[C@H](O)C[C@H]1C(=O)NCC(=O)N1CCC[C@H]1C(=O)N1CCC[C@H]1C(=O)N[C@@H](CO)C(=O)NCC(=O)NCC(=O)NCCCCCC(=O)NCCCC[C@H](NC(=O)CCCCCNC(=O)CNC(=O)CNC(=O)[C@H](CO)NC(=O)[C@@H]1CCCN1C(=O)[C@@H]1CCCN1C(=O)CNC(=O)[C@@H]1C[C@@H](O)CN1C(=O)[C@@H]1CCCN1C(=O)CNC(=O)[C@H](Cc1c[nH]c2ccccc12)NC(=O)[C@@H](CC(=O)NO)CC(C)C)C(=O)N[C@@H](CCCCNC(=O)CCCCCNC(=O)CNC(=O)CNC(=O)[C@H](CO)NC(=O)[C@@H]1CCCN1C(=O)[C@@H]1CCCN1C(=O)CNC(=O)[C@@H]1C[C@@H](O)CN1C(=O)[C@@H]1CCCN1C(=O)CNC(=O)[C@H](Cc1c[nH]c2ccccc12)NC(=O)[C@@H](CC(=O)NO)CC(C)C)C(=O)NCC(N)=O [NHT1-L] (I: {Succinyl(2R-iBu,4-NHOH)}-WGP[Hyp]GPPSGG[Ahx]KKG-NH2 / II: {Succinyl(2R-iBu,4-NHOH)}-WGP[Hyp]GPPSGG[Ahx] / III: {Succinyl(2R-iBu,4-NHOH)}-WGP[Hyp]GPPSGG[Ahx]; amide I:12-II:C, I:13-III:C)",6.62,7.17
"I: {Succinyl(2R-iBu,4-NHOH)}-WGP[Hyp]GP[Hyp]GPPSGG[Ahx]KKG-NH2 / II: {Succinyl(2R-iBu,4-NHOH)}-WGP[Hyp]GP[Hyp]GPPSGG[Ahx] / III: {Succinyl(2R-iBu,4-NHOH)}-WGP[Hyp]GP[Hyp]GPPSGG[Ahx] (amide I:15-II:C, I:16-III:C) [NHT2-L]",6.54,6.94
